Experimental data from the supplement of paper PMC10849652.
Some of the results follow. Residues, ends and D or L forms follow the SMILES beside them. *: point of attachment. Cbz = O=C(OCc1ccccc1)*

Amino acid sequences for entries named in this document (tags omitted). A change or cut given only in a name is not applied to a line headed by its entry.
UniProt Q86YH6: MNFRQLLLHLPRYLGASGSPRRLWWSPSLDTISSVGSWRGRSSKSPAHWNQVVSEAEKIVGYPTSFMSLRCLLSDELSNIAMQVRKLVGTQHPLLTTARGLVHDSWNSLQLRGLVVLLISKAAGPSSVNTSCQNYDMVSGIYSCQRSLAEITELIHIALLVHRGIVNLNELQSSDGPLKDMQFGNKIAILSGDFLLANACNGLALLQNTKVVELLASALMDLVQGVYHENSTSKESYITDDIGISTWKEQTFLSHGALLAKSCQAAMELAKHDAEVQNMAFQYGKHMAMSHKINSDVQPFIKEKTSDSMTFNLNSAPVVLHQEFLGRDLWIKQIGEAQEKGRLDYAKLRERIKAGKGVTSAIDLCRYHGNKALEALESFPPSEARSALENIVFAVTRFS
UniProt Q96KB5: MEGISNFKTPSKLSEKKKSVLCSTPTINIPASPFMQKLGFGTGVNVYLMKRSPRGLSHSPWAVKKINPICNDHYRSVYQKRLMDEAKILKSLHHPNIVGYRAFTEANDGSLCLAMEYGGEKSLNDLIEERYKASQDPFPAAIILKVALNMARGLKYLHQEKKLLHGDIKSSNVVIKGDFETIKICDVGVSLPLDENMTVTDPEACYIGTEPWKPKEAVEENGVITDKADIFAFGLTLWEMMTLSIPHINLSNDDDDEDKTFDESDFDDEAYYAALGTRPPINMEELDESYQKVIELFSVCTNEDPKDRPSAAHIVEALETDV
UniProt Q9BRX2, whole entry, looked up: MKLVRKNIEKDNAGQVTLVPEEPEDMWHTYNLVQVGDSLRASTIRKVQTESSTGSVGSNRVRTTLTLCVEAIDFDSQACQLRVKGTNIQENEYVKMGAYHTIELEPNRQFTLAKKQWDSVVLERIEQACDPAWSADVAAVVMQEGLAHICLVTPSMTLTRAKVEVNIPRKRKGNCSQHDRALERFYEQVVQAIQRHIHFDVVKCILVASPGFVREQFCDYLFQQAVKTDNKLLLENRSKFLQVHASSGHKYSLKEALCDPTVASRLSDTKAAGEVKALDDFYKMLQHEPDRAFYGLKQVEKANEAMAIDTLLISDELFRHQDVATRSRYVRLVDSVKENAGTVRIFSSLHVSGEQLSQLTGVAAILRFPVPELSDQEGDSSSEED
UniProt O95613: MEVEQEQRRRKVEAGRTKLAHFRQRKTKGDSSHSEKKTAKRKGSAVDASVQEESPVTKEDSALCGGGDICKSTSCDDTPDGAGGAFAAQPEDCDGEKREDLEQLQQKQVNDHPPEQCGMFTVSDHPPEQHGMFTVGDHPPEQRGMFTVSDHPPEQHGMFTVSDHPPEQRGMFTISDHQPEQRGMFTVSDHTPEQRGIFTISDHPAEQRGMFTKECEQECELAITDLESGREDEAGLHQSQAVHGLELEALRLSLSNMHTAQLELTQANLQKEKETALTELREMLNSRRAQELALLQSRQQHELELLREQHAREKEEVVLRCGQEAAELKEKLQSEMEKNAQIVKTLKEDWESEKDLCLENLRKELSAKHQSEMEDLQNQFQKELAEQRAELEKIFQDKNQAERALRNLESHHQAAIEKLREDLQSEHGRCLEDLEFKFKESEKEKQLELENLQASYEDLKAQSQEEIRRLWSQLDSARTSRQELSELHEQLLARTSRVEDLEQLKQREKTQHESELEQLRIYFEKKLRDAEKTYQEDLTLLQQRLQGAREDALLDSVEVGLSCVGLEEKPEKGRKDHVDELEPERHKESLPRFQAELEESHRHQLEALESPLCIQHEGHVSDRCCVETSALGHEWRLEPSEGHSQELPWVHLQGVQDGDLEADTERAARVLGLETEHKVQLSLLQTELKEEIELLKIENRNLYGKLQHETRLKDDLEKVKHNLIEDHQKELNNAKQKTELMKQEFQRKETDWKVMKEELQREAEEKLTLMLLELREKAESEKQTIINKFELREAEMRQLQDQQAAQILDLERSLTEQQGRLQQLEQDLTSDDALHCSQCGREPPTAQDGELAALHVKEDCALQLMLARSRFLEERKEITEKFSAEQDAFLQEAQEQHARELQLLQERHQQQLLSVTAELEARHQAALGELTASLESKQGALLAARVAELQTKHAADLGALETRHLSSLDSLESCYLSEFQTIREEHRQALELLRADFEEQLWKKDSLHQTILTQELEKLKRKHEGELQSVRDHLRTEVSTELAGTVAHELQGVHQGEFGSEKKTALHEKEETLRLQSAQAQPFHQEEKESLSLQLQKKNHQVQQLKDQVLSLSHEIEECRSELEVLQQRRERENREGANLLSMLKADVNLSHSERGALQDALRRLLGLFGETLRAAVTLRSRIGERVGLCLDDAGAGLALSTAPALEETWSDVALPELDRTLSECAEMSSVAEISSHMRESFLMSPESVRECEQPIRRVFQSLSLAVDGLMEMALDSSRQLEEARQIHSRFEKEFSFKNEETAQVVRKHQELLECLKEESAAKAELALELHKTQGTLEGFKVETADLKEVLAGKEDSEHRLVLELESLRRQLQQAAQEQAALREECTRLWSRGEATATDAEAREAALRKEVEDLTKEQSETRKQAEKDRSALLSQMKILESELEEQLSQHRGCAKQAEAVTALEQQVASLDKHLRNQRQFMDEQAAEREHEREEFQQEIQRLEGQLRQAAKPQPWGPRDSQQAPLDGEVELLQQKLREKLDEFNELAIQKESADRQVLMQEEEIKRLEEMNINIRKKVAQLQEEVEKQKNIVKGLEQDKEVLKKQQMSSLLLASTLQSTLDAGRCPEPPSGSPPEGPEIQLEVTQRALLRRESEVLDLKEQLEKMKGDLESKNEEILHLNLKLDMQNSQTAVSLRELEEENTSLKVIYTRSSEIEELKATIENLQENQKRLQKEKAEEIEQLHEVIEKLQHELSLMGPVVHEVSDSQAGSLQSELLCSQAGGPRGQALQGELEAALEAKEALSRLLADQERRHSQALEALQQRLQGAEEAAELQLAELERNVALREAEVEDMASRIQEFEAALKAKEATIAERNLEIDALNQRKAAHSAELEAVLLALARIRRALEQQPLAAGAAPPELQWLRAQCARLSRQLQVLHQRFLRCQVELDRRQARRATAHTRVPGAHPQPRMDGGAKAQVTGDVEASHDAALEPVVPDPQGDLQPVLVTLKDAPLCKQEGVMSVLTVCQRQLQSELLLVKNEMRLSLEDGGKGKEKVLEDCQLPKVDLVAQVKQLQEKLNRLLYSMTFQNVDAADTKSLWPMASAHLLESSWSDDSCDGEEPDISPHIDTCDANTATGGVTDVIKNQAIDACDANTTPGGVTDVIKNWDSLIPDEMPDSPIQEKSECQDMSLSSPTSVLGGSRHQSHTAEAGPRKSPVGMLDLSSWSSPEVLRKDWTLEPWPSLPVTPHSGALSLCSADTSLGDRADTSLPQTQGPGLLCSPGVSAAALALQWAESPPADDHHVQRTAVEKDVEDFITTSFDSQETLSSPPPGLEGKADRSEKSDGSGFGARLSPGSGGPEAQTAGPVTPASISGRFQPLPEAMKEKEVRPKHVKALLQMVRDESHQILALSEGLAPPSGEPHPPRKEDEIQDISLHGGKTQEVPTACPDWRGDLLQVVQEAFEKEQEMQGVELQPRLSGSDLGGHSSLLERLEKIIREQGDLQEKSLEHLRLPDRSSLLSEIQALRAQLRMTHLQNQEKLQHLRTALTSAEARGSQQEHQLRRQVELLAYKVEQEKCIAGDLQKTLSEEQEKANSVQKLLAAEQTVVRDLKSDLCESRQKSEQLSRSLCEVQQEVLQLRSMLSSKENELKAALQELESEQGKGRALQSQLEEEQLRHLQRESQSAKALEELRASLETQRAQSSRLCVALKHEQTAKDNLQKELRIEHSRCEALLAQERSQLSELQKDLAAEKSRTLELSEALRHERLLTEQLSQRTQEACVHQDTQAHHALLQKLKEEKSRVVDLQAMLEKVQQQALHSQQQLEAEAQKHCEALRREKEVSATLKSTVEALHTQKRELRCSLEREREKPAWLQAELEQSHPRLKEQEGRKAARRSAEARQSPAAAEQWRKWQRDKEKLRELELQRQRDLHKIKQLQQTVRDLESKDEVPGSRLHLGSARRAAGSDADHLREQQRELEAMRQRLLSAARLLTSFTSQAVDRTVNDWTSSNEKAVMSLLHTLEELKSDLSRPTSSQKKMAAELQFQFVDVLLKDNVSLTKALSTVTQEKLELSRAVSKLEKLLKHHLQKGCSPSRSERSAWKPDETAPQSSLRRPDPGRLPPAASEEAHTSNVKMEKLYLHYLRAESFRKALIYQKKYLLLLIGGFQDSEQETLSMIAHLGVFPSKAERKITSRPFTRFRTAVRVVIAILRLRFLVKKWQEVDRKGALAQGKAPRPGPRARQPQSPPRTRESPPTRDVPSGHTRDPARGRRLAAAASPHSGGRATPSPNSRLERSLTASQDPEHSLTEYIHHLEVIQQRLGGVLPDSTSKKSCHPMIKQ
UniProt Q15102: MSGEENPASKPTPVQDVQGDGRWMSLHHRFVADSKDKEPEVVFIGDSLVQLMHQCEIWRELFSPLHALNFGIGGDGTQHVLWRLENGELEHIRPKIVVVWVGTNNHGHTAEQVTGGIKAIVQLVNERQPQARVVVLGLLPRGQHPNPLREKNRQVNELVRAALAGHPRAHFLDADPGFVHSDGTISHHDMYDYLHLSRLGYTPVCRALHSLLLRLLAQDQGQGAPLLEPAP
UniProt Q96RD7, whole entry, looked up: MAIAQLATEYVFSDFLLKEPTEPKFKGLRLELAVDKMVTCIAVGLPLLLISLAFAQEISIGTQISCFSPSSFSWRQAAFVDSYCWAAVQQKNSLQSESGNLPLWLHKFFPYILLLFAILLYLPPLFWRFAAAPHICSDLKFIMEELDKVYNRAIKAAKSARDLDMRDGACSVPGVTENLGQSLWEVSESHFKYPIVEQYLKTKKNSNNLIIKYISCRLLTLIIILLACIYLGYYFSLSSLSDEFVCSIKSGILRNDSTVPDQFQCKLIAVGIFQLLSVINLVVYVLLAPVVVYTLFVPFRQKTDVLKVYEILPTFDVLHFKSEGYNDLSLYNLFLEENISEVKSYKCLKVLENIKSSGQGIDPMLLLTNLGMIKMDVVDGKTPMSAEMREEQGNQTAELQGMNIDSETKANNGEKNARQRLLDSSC
UniProt Q92968: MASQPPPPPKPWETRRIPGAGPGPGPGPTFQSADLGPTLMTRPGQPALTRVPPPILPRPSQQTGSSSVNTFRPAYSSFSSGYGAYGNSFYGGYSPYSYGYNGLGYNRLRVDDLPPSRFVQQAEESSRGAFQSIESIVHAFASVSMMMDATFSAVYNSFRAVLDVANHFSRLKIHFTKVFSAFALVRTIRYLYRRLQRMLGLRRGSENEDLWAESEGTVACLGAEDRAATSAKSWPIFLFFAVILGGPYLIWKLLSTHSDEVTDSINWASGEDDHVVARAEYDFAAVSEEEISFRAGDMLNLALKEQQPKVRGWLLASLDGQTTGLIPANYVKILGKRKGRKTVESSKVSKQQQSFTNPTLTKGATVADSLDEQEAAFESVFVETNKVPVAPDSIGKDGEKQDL
UniProt Q15004: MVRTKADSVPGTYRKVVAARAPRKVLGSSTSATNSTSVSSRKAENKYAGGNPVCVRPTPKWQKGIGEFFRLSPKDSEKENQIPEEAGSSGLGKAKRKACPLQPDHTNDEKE
UniProt Q6VY07, whole entry, looked up: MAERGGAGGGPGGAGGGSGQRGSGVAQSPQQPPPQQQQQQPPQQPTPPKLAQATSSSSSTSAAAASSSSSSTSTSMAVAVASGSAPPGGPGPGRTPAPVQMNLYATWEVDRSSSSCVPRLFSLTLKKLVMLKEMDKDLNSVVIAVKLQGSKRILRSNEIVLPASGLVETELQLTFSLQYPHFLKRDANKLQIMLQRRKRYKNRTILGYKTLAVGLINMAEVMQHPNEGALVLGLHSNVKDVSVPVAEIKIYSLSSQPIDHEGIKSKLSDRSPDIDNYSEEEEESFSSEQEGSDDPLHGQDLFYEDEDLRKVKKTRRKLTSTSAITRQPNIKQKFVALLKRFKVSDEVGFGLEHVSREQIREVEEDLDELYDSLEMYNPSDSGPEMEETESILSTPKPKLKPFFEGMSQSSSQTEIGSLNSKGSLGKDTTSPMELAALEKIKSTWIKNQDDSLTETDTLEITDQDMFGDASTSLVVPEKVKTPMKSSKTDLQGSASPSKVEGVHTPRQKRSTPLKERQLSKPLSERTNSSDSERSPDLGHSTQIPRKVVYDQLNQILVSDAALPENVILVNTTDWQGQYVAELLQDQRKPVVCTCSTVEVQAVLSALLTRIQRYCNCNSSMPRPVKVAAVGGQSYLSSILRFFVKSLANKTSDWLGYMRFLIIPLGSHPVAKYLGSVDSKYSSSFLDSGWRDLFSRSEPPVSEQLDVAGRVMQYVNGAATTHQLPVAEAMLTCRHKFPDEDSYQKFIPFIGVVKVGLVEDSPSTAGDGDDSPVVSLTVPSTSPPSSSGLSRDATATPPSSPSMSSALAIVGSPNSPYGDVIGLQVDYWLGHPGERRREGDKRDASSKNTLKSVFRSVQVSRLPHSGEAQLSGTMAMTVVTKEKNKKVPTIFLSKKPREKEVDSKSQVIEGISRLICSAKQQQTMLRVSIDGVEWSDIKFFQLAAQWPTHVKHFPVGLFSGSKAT

Columns and labels:
Assay in all cases: log2 fold change, soluble protein after heating vs DMSO (PISA); higher = thermal stabilisation; K562 cells, 10 uM, 30 min; active = over 0.2 and 3.5 SD of the protein, either way, in both replicates (recomputed)
IRAK-1-4 Inhibitor I = compound: C1COCCN1CCN2C3=CC=CC=C3N=C2NC(=O)C4=CC(=CC=C4)[N+](=O)[O-] [IRAK-1-4 Inhibitor I]
Procedure, shortened: (§1)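 K562 cells (2×10^6 cells/mL) were treated with 10 μM compound for 30 min, and aliquots were heated for 3 min over 48°C-58°C. Pooled aliquots were extracted in PBS with 0.5% NP-40 at 4°C, and the supernatant after 21,000xg for 90 min was measured by TMTpro 16plex LC-MS/MS with channel sums equalised. Reported thermal stability, relative to control samples and from duplicates, is a log2 fold change.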

ibrutinib = compound: C=CC(=O)N1CCC[C@@H](n2nc(-c3ccc(Oc4ccccc4)cc3)c3c(N)ncnc32)C1 [ibrutinib]
Procedure, shortened: as §1

[1] = compound: CC(=O)c1cnc2ccc(-c3cc(Cl)c(O)c(Cl)c3)nc2c1N[C@H]1CC[C@H](CN(C)C)CC1
Procedure, shortened: as §1

ralimetinib = compound: CC(C)(C)Cn1c(N)nc2ccc(-c3[nH]c(C(C)(C)C)nc3-c3ccc(F)cc3)nc21 [ralimetinib]
Procedure, shortened: as §1

[2] = compound: CC(C)(O)CC(=O)NCCn1ccc2ncnc(Nc3ccc(Oc4cccc(C(F)(F)F)c4)c(Cl)c3)c21
Procedure, shortened: as §1

[3] = compound: CC(C)C1=C2N=C(C=C(N2N=C1)NCC3=CC=CC=C3)NCCCCCCN
Procedure, shortened: as §1

[4] = compound: CC(C)C[C@@H](C=O)NC(=O)[C@H](CC(C)C)NC(=O)[C@H](CC(C)C)NC(=O)OCc1ccccc1
Procedure, shortened: as §1

pinometostat = compound: CC(C)N(C[C@H]1O[C@@H](n2cnc3c(N)ncnc32)[C@H](O)[C@@H]1O)[C@H]1C[C@@H](CCc2nc3cc(C(C)(C)C)ccc3[nH]2)C1 [pinometostat]
Procedure, shortened: as §1

[5] = compound: CC1=C(C(CC(=O)N1)C2=CC=C(C=C2)C(F)(F)F)C(=O)NC3=C(C=C4C(=C3)C=NN4)F
Procedure, shortened: as §1

[6] = compound: CC1=C(C2=C(C=C1)C(=O)C3=CC=CC=C3N2CCCN)C
Procedure, shortened: as §1

[7] = compound: CC1=C(C=C(C=C1)NC(=O)C2=CC(=CC=C2)C(C)(C)C#N)NC3=CC4=C(C=C3)N=CN(C4=O)C
Procedure, shortened: as §1

[8] = compound: CC1=C(C=C(C=C1)NC(=O)C2=CC(=CC=C2)N(C)C)NC(=O)C3=CC=C(C=C3)O
Procedure, shortened: as §1

[9] = compound: CC1=CC=C(C=C1)SC2=C3C=C(SC3=CN=C2)C(=O)N
Procedure, shortened: as §1

[10] = compound: CC1=NC(=CC=C1)C2=C(N=C(N2)C(C)(C)C)C3=CC4=NC=CN=C4C=C3
Procedure, shortened: as §1

Nexturastat A = compound: CCCCN(Cc1ccc(C(=O)NO)cc1)C(=O)Nc1ccccc1 [Nexturastat A]
Procedure, shortened: as §1

vemurafenib = compound: CCCS(=O)(=O)Nc1ccc(F)c(C(=O)c2c[nH]c3ncc(-c4ccc(Cl)cc4)cc23)c1F [vemurafenib]
Procedure, shortened: as §1

[11] = compound: CCCS(=O)(=O)Nc1ccc(F)c(C(=O)c2c[nH]c3ncc(Cl)cc23)c1F
Procedure, shortened: as §1

givinostat = compound: CCN(CC)Cc1ccc2cc(COC(=O)Nc3ccc(C(=O)NO)cc3)ccc2c1 [givinostat]
Procedure, shortened: as §1

barasertib = compound: CCN(CCCOc1ccc2c(Nc3cc(CC(=O)Nc4cccc(F)c4)[nH]n3)ncnc2c1)CCOP(=O)(O)O [barasertib]
Procedure, shortened: as §1

[12] = compound: CCCc1cc(C)[nH]c(=O)c1CNC(=O)c1cc(-c2ccnc(N3CCN(C)CC3)c2)cc2c1cnn2C(C)C
Procedure, shortened: as §1

Measured: log2 fold change

PDSS2 (UniProt Q86YH6)
active: [5] -0.438
inactive: IRAK-1-4 Inhibitor I 0.1 | ibrutinib 0.074 | [1] 0.058 | ralimetinib -0.059 | [2] -0.089 | [3] -0.085 | [4] 0.054 | pinometostat -0.017 | [6] -0.022 | [7] -0.215 | [8] 0.017 | [9] 0.093 | [10] -0.083 | Nexturastat A -0.126 | vemurafenib -0.03 | [11] 0.244 | givinostat -0.046 | barasertib 0.027

PCM1 isoform 5 (UniProt Q15154)
inactive: IRAK-1-4 Inhibitor I -0.032 | ibrutinib -0.088 | [1] -0.157 | ralimetinib 0.112 | [2] 0.065 | [3] -0.091 | [4] 0.033 | pinometostat 0.22 | [5] -0.035 | [6] -0.076 | [7] -0.127 | [8] -0.015 | [9] -0.077 | [10] -0.017 | Nexturastat A 0.287 | vemurafenib -0.075 | [11] -0.019 | [12] 0.089 | givinostat 0.083 | barasertib -0.011

PBK (UniProt Q96KB5)
inactive: IRAK-1-4 Inhibitor I -0.142 | ibrutinib -0.059 | [1] 0 | ralimetinib 0.111 | [2] -0.144 | [3] -0.286 | [4] 0.06 | pinometostat 0.071 | [6] -0.08 | [7] 0.01 | [8] -0.056 | [9] 0.069 | [10] -0.001 | Nexturastat A 0.037 | vemurafenib 0.124 | [11] 0.14 | [12] 0.144 | givinostat 0.143 | barasertib 0.145

PDE4DIP isoform 4 (UniProt Q5VU43)
active: Nexturastat A 0.358
inactive: IRAK-1-4 Inhibitor I -0.006 | ibrutinib 0.001 | [1] 0.045 | ralimetinib 0.011 | [2] -0.08 | [3] 0.035 | [4] 0.087 | pinometostat -0.05 | [6] 0.088 | [7] -0.027 | [8] -0.049 | [9] -0.012 | [10] -0.044 | vemurafenib -0.034 | [11] -0.01 | [12] -0.023 | givinostat 0.021 | barasertib 0.083

PELO (UniProt Q9BRX2)
inactive: IRAK-1-4 Inhibitor I -0.073 | ibrutinib 0.071 | [1] -0.106 | ralimetinib 0.122 | [2] -0.128 | [4] 0.058 | pinometostat 0.201 | [6] 0.088 | [7] -0.005 | [8] -0.051 | [9] 0.042 | [10] -0.039 | Nexturastat A 0.161 | vemurafenib -0.13 | [11] 0.007 | [12] 0.055 | givinostat 0.192 | barasertib 0.045
active: [3] -0.361

PDXDC1 (UniProt Q6P996)
inactive: IRAK-1-4 Inhibitor I -0.165 | ibrutinib -0.053 | [1] -0.083 | ralimetinib 0.119 | [2] 0.024 | [3] -0.028 | [4] 0.279 | pinometostat 0.356 | [5] 0.142 | [6] 0.041 | [7] 0.13 | [8] -0.035 | [9] -0.052 | [10] -0.135 | Nexturastat A 0.355 | vemurafenib -0.175 | [11] 0.062 | [12] 0.14 | givinostat 0.077 | barasertib 0.261

PCNT (UniProt O95613)
inactive: IRAK-1-4 Inhibitor I 0.085 | ibrutinib -0.078 | [1] -0.079 | ralimetinib -0.113 | [2] -0.021 | [3] 0.053 | [4] 0.229 | pinometostat 0.069 | [6] -0.018 | [7] -0.104 | [8] 0.068 | [9] -0.117 | [10] -0.116 | Nexturastat A 0.007 | vemurafenib -0.122 | [11] -0.103 | [12] -1.05 | givinostat 0.255 | barasertib 0.045

PAFAH1B3 (UniProt Q15102)
active: [6] 0.305
inactive: IRAK-1-4 Inhibitor I -0.041 | ibrutinib 0.008 | [1] -0.119 | ralimetinib 0.009 | [2] -0.137 | [3] -0.055 | [4] -0.078 | pinometostat 0.023 | [7] 0 | [8] -0.096 | [9] 0.098 | [10] 0.03 | Nexturastat A 0.019 | vemurafenib -0.014 | [11] -0.012 | [12] 0.005 | givinostat -0.022 | barasertib 0.035

PANX1 (UniProt Q96RD7)
inactive: IRAK-1-4 Inhibitor I -0.051 | ibrutinib 0.002 | [1] -0.032 | ralimetinib -0.08 | [2] 0.021 | [3] 0.126 | [4] 0.012 | pinometostat -0.005 | [5] 0.002 | [6] 0.01 | [7] 0.027 | [8] -0.012 | [9] -0.001 | [10] 0.013 | Nexturastat A -0.126 | vemurafenib -0.04 | [11] 0.019 | [12] -0.003 | givinostat -0.021 | barasertib -0.034

PDCD4 (UniProt Q53EL6)
inactive: IRAK-1-4 Inhibitor I -0.043 | ibrutinib -0.05 | [1] 0.271 | ralimetinib -0.042 | [2] -0.091 | [3] -0.194 | [4] -0.015 | pinometostat -0.046 | [6] -0.17 | [7] 0.029 | [8] -0.043 | [9] 0.012 | [10] 0.016 | Nexturastat A -0.11 | vemurafenib 0.083 | [11] 0.107 | [12] -0.06 | givinostat 0.103 | barasertib 0.002

Random excerpt: two entries already listed.
PCNT (UniProt O95613)
inactive: IRAK-1-4 Inhibitor I 0.085 | ibrutinib -0.078 | [1] -0.079 | ralimetinib -0.113 | [2] -0.021 | [3] 0.053 | [4] 0.229 | pinometostat 0.069 | [6] -0.018 | [7] -0.104 | [8] 0.068 | [9] -0.117 | [10] -0.116 | Nexturastat A 0.007 | vemurafenib -0.122 | [11] -0.103 | [12] -1.05 | givinostat 0.255 | barasertib 0.045

PAFAH1B3 (UniProt Q15102)
active: [6] 0.305
inactive: IRAK-1-4 Inhibitor I -0.041 | ibrutinib 0.008 | [1] -0.119 | ralimetinib 0.009 | [2] -0.137 | [3] -0.055 | [4] -0.078 | pinometostat 0.023 | [7] 0 | [8] -0.096 | [9] 0.098 | [10] 0.03 | Nexturastat A 0.019 | vemurafenib -0.014 | [11] -0.012 | [12] 0.005 | givinostat -0.022 | barasertib 0.035

Later entries

PCYT1A (UniProt P49585)
inactive: IRAK-1-4 Inhibitor I 0.081 | ibrutinib -0.032 | [1] -0.007 | ralimetinib -0.072 | [2] -0.019 | [3] -0.163 | [4] 0.084 | pinometostat -0.005 | [6] -0.137 | [7] -0.049 | [8] -0.038 | [9] -0.045 | [10] 0.035 | Nexturastat A -0.034 | vemurafenib 0.052 | [11] 0.043 | [12] -0.092 | givinostat -0.024 | barasertib 0.044

PCYT1B (UniProt Q9Y5K3)
inactive: IRAK-1-4 Inhibitor I 0.014 | ibrutinib -0.029 | [1] -0.072 | ralimetinib 0.011 | [2] 0.001 | [3] -0.172 | [4] 0.027 | pinometostat -0.011 | [6] -0.12 | [7] 0.007 | [8] 0.022 | [9] 0.011 | [10] 0.034 | Nexturastat A -0.06 | vemurafenib 0.022 | [11] 0.049 | [12] -0.031 | givinostat 0.038 | barasertib 0.048

PDCD2L (UniProt Q9BRP1)
inactive: IRAK-1-4 Inhibitor I -0.034 | ibrutinib -0.006 | [1] 0.07 | ralimetinib 0.047 | [2] -0.115 | [3] 0.078 | [4] 0.042 | pinometostat 0.007 | [6] 0.041 | [7] -0.001 | [8] -0.104 | [9] 0.052 | [10] 0.068 | Nexturastat A 0 | vemurafenib -0.038 | [11] 0.079 | [12] 0.045 | givinostat -0.088 | barasertib 0.069

PEX13 (UniProt Q92968)
inactive: IRAK-1-4 Inhibitor I 0.053 | ibrutinib -0.067 | [1] -0.011 | ralimetinib 0.062 | [2] -0.193 | [3] -0.201 | [4] 0.036 | pinometostat -0.032 | [6] 0.024 | [7] 0.052 | [8] -0.101 | [9] 0.033 | [10] -0.02 | Nexturastat A 0.116 | vemurafenib -0.033 | [11] 0.033 | [12] -0.142 | givinostat -0.034 | barasertib 0.044

PARG (UniProt Q86W56)
inactive: IRAK-1-4 Inhibitor I -0.047 | ibrutinib -0.022 | [1] -0.124 | ralimetinib 0.045 | [2] -0.075 | [3] -0.203 | [4] 0.043 | pinometostat 0.059 | [7] 0.126 | [8] -0.064 | [9] -0.008 | [10] 0.025 | Nexturastat A 0.018 | vemurafenib 0.087 | [11] -0.006 | [12] -0.003 | givinostat 0.107 | barasertib 0.07
active: [6] 0.331

PCLAF (UniProt Q15004)
active: [4] 0.278
inactive: IRAK-1-4 Inhibitor I 0.055 | ibrutinib 0.034 | [1] -0.061 | ralimetinib -0.012 | [2] 0.036 | [3] 0.184 | pinometostat -0.012 | [6] -0.088 | [7] -0.119 | [8] 0.031 | [9] -0.014 | [10] -0.009 | Nexturastat A -0.002 | vemurafenib -0.097 | [11] -0.083 | [12] 0.115 | givinostat -0.061 | barasertib -0.007

PACS1 (UniProt Q6VY07)
active: [1] -0.297
inactive: IRAK-1-4 Inhibitor I -0.002 | ibrutinib -0.016 | ralimetinib -0.024 | [2] -0.014 | [3] -0.011 | [4] 0 | pinometostat -0.029 | [6] -0.007 | [7] -0.001 | [8] -0.031 | [9] -0.021 | [10] 0.087 | Nexturastat A 0.023 | vemurafenib 0.021 | [11] 0.023 | [12] 0.092 | givinostat 0.004 | barasertib 0.039
